# Data from article doi:10.1101/2025.06.04.657936.
# Substitutions are numbered along the chain they refer to. These are yes or no findings as the source states them, for the method shown. Binding seen in cells or lysates may run through a third protein. Some binding calls cover weakened binding; strength is not graded here. Sequences can lack the tags named with a protein.
# T1: GST-BVRB (biliverdin reductase B) (human) (UniProt P30043)
# T1 sequence: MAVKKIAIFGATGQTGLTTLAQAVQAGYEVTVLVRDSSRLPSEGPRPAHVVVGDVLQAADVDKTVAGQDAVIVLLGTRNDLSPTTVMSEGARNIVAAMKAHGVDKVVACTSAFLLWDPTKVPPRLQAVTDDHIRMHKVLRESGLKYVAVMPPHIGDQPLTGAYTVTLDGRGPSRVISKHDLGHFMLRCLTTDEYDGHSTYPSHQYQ
# T2: GST-G17A-BVRA (human) (UniProt P53004)
# T2 sequence: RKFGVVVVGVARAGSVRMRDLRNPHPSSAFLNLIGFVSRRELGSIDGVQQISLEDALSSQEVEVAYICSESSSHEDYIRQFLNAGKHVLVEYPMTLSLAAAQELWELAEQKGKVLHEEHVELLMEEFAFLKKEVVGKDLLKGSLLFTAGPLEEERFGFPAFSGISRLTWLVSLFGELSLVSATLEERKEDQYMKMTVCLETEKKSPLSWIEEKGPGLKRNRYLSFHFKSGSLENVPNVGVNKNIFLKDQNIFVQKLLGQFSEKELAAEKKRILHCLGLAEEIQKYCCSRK
# T3: GST-BVRA (biliverdin reductase A, wild type) (human) (UniProt P53004)
# T3 sequence: T2 sequence with A11G
# B1: GFP-Nrf2 (nuclear factor erythroid-derived factor-like 2) (protein, UniProt Q16236 1-605)
# chain: MMDLELPPPGLPSQQDMDLIDILWRQDIDLGVSREVFDFSQRRKEYELEKQKKLEKERQEQLQKEQEKAFFAQLQLDEETGEFLPIQPAQHIQSETSGSANYSQVAHIPKSDALYFDDCMQLLAQTFPFVDDNEVSSATFQSLVPDIPGHIESPVFIATNQAQSPETSVAQVAPVDLDGMQQDIEQVWEELLSIPELQCLNIENDKLVETTMVPSPEAKLTEVDNYHFYSSIPSMEKEVGNCSPHFLNAFEDSFSSILSTEDPNQLTVNSLNSDATVNTDFGDEFYSAFIAEPSISNSMPSPATLSHSLSELLNGPIDVSDLSLCKAFNQNHPESTAEFNDSDSGISLNTSPSVASPEHSVESSSYGDTLLGLSDSEVEELDSAPGSVKQNGPKTPVHSSGDMVQPLSPSQGQSTHVHDAQCENTPEKELPVSPGHRKTPFTKDKHSSRLEAHLTRDELRAKALHIPFPVEKIINLPVVDFNEMMSKEQFNEAQLALIRDIRRRGKNKVAAQNCRKRKLENIVELEQDLDHLKDEKEKLLKEKGENDKSLHLLKKQLSTLYLEVFSMLRDEDGKPYSPSEYSLQQTRDGNVFLVPKSKKPDVKKN
# What was measured:
# Experiment in all cases: pull-down
# [1] = target: T1, GST-BVRB (biliverdin reductase B) (human)
# [2] = target: T2, GST-G17A-BVRA (human)
# [3] = target: T3, GST-BVRA (biliverdin reductase A, wild type) (human)
binder,measurement,setting,value
B1,binding,[1],no binding
same,binding,[2],binds
same,binding,[3],binds
